No constants are given. Whether binding was seen depends on the method and setting. In cells and extracts the contact can be indirect. Some binding calls cover weakened binding; strength is not graded here. Where a sequence is shown, tags or fusion partners need not be part of it.
Biological target: T1, cytoskeletal associated protein Palladin (PALLD) (human (endogenous in the paper's human pancreatic cell lines; line not stated for this experiment)) (UniProt Q8WX93)
T1 sequence: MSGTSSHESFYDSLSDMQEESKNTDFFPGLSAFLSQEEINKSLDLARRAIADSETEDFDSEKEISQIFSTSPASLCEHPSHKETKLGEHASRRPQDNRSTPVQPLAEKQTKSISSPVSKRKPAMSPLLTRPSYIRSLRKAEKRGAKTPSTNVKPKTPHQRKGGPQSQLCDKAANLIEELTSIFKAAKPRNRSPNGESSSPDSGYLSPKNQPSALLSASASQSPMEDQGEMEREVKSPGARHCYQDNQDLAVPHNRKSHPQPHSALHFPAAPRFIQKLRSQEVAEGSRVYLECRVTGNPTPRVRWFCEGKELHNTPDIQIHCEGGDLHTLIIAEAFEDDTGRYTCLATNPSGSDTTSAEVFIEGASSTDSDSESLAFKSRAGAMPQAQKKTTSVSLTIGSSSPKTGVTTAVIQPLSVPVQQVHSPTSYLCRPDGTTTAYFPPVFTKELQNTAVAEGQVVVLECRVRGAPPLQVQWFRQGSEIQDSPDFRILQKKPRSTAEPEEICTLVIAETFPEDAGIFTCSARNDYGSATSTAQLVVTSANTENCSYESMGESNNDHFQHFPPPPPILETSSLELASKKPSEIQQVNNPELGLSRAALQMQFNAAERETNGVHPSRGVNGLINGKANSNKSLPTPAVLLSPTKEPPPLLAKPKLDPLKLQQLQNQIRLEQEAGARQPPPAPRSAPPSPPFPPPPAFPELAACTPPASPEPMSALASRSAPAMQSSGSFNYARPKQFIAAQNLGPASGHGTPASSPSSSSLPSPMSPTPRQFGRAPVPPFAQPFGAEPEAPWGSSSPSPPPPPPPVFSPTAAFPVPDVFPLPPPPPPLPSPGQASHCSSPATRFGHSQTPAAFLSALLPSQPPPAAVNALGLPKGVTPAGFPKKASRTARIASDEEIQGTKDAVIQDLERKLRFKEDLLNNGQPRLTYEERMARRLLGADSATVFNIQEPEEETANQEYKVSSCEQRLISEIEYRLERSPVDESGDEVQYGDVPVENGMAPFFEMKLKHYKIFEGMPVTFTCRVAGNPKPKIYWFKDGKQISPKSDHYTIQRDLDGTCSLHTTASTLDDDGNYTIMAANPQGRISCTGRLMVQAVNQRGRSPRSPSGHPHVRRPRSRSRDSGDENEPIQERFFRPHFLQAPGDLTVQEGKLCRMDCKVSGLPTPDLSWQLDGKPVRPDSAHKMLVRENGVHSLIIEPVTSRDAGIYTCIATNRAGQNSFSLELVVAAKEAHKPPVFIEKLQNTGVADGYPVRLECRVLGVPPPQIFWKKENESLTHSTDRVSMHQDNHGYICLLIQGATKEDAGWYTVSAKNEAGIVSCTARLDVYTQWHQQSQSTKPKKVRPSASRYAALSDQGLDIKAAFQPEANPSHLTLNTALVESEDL
Experiment: co-IP; immunoprecipitate analysed by western blot (Figure 6J); which protein was precipitated and which cells were used is not told

Sequences of proteins named here, by UniProt entry; tags and fusion partners are left off.
UniProt P46940: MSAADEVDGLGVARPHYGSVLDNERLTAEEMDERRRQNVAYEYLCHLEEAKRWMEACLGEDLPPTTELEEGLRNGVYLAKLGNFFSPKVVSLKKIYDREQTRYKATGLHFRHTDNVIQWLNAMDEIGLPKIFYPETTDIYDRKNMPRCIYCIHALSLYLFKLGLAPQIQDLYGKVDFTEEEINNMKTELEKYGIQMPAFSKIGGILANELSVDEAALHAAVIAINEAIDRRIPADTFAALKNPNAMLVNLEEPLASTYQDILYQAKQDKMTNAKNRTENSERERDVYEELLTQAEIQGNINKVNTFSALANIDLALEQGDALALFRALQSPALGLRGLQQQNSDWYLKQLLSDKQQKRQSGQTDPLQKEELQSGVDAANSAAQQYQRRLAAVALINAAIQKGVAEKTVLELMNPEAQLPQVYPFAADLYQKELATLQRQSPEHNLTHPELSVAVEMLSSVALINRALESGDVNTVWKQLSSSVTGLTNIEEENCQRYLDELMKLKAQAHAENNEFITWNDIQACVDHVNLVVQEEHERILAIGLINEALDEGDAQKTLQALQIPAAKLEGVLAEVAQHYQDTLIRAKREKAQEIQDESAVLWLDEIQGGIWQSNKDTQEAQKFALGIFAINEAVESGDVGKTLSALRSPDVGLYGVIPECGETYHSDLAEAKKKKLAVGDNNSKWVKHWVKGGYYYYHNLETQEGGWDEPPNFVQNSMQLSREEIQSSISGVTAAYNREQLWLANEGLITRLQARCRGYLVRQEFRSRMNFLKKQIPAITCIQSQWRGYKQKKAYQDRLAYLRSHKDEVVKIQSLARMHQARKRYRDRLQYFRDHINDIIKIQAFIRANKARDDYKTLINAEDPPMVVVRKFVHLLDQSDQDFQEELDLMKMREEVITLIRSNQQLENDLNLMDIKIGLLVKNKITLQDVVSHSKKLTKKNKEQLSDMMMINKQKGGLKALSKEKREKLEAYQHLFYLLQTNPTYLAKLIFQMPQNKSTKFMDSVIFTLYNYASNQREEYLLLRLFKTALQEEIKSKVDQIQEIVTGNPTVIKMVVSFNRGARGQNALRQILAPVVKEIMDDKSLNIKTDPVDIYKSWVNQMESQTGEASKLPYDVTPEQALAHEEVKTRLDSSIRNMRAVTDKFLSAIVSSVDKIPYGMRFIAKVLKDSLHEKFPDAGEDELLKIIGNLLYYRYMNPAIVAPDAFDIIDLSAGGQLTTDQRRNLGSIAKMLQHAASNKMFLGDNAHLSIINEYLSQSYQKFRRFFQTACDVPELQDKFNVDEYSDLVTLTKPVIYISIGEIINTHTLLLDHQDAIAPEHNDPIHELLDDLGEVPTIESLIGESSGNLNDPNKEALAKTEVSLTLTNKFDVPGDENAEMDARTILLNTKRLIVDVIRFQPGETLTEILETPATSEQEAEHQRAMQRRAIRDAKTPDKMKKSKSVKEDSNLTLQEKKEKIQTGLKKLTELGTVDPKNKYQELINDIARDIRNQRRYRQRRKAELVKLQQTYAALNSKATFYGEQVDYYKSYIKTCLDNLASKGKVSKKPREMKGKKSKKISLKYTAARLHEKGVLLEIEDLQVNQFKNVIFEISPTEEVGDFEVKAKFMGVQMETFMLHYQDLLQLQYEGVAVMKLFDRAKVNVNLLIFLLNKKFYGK

binding: binds
Substance: IQ motif containing GTPase-activating protein 1 (IQGAP1) (from UniProt P46940 1-1657)
